Values from PubChem BioAssay AID504791 (Drosophila RNAi Screening Center, 2011).

Purpose: 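Genes of the fly required for silencing by miRNA, siRNA or endo-siRNA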 (primary screen)
Cell system: Drosophila S2-derived reporter cells
Knock-down reagent: long dsRNA against Drosophila genes, about 150-250 ng dsRNA per well (siRNA assay); about 80-120 ng (miRNA assay)
Timing: about 5 days (siRNA assay); about 4 days (miRNA assay)
Challenge: copper sulfate induction of reporters: 25 µM (siRNA assay); 200 mM stated (miRNA assay), 1-2 days before reading
Measured: 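Per-well ratio of Renilla over firefly light, expressed relative to that plate's average ratio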
Scale: siRNA reporter hit score: higher = 3 marks a strong hit with raised ratio; -3 a strong hit with lowered ratio
Rule for the call: 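a well was a first-pass pick when its plate-scaled ratio rose above 1.5 (siRNA assay) or 1.6 (miRNA assay), or dropped below 0.6; a gene counted only if two separate dsRNAs agreed on retest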
The screen tested about 23,000 reagents; this is a random part of those with a known target gene and a result. Of all reagents, 199 (0.86%) got an active call. 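Plate-scaled ratios behind the calls are not deposited; printed light signals are raw; many rows marked increased or decreased are still called inactive.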 A number with no mark means an inactive call. A plus sign joins genes that one reagent is predicted to hit.

gene	DRSC id	siRNA reporter hit score	stable assay Renilla, run 1 (luminescence)	stable assay firefly, run 1 (luminescence)
tmod	DRSC13993		8239	4.27e5
tmod	DRSC14314		6570	3.93e5
tmod	DRSC15076		6250	4.47e5
tmod	DRSC17062		8595	5.84e5
CG1750	DRSC15240		6574	5.26e5
Pgant1	DRSC07095		6850	4.52e5
Apc	DRSC14114		6364	4.47e5
CG11630	DRSC03696		7418	3.68e5
CG11089 + CG31381	DRSC13690		5672	3.27e5
CG11089 + CG31381	DRSC14290		9663	3.74e5
CG3164	DRSC00572		7072	3.26e5
mfas	DRSC16997		8470	3.70e5
CG2082	DRSC12125		7498	3.48e5
ClC-c	DRSC10499		7510	2.90e5
Plc21C	DRSC00773		11874	3.59e5
Lsm10	DRSC06250		5487	3.41e5
Or67b	DRSC11241		5955	4.40e5
PIP82	DRSC18694		6716	3.82e5
Arp8	DRSC20059		7504	4.77e5
VhaPPA1-2	DRSC16176		6987	4.51e5
CG13671	DRSC10030		7600	5.76e5
E5	DRSC13000		4108	3.80e5
E5	DRSC16585		5559	2.06e5
E5	DRSC23157		4175	3.04e5
CG13248	DRSC11696		7551	4.54e5
aralar1	DRSC13987		8190	3.56e5
aralar1	DRSC16901		6967	3.79e5
mfr	DRSC10543		6246	3.32e5
nrv1	DRSC03382		12199	3.87e5
bdl	DRSC00271		19155	6.66e5
CG13043	DRSC09924		7107	4.18e5
Listericin	DRSC07334		7237	4.12e5
CG17177	DRSC10257		7389	5.13e5
Axud1	DRSC00270		8489	4.79e5
ogre	DRSC18809		8455	4.70e5
CG13471	DRSC10015		7786	4.00e5
CG13838	DRSC14688		3271	4.12e5
Cyp4d14	DRSC18457		5507	3.41e5
Mkp + CG34140	DRSC08585		8506	3.13e5
CG14070	DRSC02373		8226	4.61e5
awd	DRSC16906		7103	4.74e5
SWIP	DRSC19540		5032	3.70e5
GNBP1	DRSC11169		7711	4.11e5
GNBP1	DRSC21836		10305	7.36e5
Eaat2	DRSC00032		5451	3.94e5
Eaat2	DRSC00749		18347	2.06e5
Dscam2	DRSC08869		4894	2.64e5
Dscam2	DRSC10198		6684	4.28e5
Dscam2	DRSC11018		5952	4.85e5
Dscam2	DRSC11019		6696	4.27e5
Dscam2	DRSC22526		3899	4.55e5
CG4860	DRSC15664		5295	3.47e5
CG4860	DRSC21755		8755	4.49e5
lobo	DRSC14662		7318	3.65e5
lobo	DRSC14663		6023	2.83e5
CG14304	DRSC14783		6184	2.08e5
Antp	DRSC12490	3	5886	2.08e5
Antp	DRSC23104		2868	2.59e5

Laid out differently: 7 of the entries above
| gene | DRSC id | siRNA reporter hit score | stable assay Renilla, run 1 (luminescence) | stable assay firefly, run 1 (luminescence) |
| --- | --- | --- | --- | --- |
| CG17177 | DRSC10257 | – | 7389 | 5.13e5 |
| Axud1 | DRSC00270 | – | 8489 | 4.79e5 |
| ogre | DRSC18809 | – | 8455 | 4.70e5 |
| CG13471 | DRSC10015 | – | 7786 | 4.00e5 |
| CG13838 | DRSC14688 | – | 3271 | 4.12e5 |
| Cyp4d14 | DRSC18457 | – | 5507 | 3.41e5 |
| Mkp + CG34140 | DRSC08585 | – | 8506 | 3.13e5 |
